Consider 17 compounds from PubChem BioAssay AID493014 (National Center for Advancing Translational Sciences (NCATS), 2011).

Some of the results follow. The main result of the screen is listed elsewhere. These columns were measured beside it and carry no call. Compounds called inactive in the main read-out are mostly missing here. Words in brackets tell the shape of the fitted curve; partial curves, single points and poor fits give uncertain potencies.

What is called AC50 is the midpoint of the concentration-response curve, whichever way the signal moves.

The assay is described as follows: qHTS Assay to Find Inhibitors of Chronic Active B-Cell Receptor Signaling. As to conditions: ABC-DLBCL IkBa-CBG/CBR reporter, luminescence ratio (green luciferase fused to IkBa over red control in TMD8 lymphoma cells), 4 h. In outline:
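Compounds up to 46 uM were incubated four hours with TMD8 cells whose green CBG68 luciferase is fused to IkappaBalpha; red CBR luminescence normalised the signal, and concentration-effect curves were fitted to fusion, red and ratio data.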
(In general: qHTS replaces the single test concentration by a dilution series.)

[1] abbreviates: measured here: CBR red luminescence, cell number.
Setting [2] is: measured here: IkBa-CBG green luminescence.

Regarding `CC(=O)Nc1ccc(S(=O)(=O)Nc2nc3ccccc3nc2Nc2ccc(O)c(C(=O)O)c2)cc1`, the AC50 under setting [1] is 11.2 µM [falling, partial curve, poor fit]. As to `Nc1cccc(C(=O)N/N=C/c2ccsc2)c1`, the AC50 under setting [1] was 7.94 µM [falling, partial curve].

Turning to `O=C(CSc1nnc(-c2ccc(Cl)cc2)c(-c2ccc(Cl)cc2)n1)NC1CCCC1`, the AC50 under setting [1] was 35.5 µM [falling, single point]. For `S=C(Nc1cccc(Cl)c1)N(CCCN1CCCC1)Cc1cccn1Cc1ccc(Cl)cc1`, under setting [1], the AC50 was 22.4 µM [falling, single point].

For `Oc1ccc(Nc2nc(Cl)nc(NCc3ccco3)n2)cc1`, the AC50 under setting [1] was 16.4 µM [falling, partial curve]. For `CCn1c(=O)c(C(=O)NNC(=O)c2ccccc2)c(O)c2ccccc21`, the AC50 under setting [1] was 14.1 µM [falling, partial curve, poor fit]. Still for that read-out and setting: then `CCOC(=O)Cn1cc([N+](=O)[O-])c(OC)n1`, with 5.8 µM [falling, full curve, poor fit]. Regarding `O=C(CNC(=O)c1ccc(Br)o1)Nc1ccc(F)c(S(=O)(=O)N2CCOCC2)c1`, the AC50 under setting [1] is 14.6 µM [falling, partial curve]. Regarding `COc1ccc(CCN(C)C(=O)C2CCN(Cc3cccc(OC)c3OC)CC2)cc1OC`, under setting [1], the AC50 is 0.112 µM [falling, full curve, poor fit]. The same measure, in the same setting: for `O=C(NCCc1c[nH]c2ccccc12)c1cc(Cl)c2c(c1)OCO2` the value was 3.98 µM [falling, partial curve, poor fit]. Take `COc1cc(C2=CN(Cc3ccccc3)CCC2=O)cc(OC)c1OC`: under setting [1], the AC50 is 14.6 µM [rising, partial curve, poor fit]. On the same count and under the same terms, for `CC(C)c1ccc(NC(=O)C2C3C=CC4(O3)C2C(=O)N(CCCN2CCCCC2)C4C(=O)NC2CCCCC2)cc1` (configuration not stated) the value was 0.0891 µM [rising, full curve, poor fit]; for `CCn1c(=O)c(C(=O)NCCc2ccccc2)c(O)c2ccccc21`, 2.06 µM [falling, full curve]. As to `Nc1ncnc2c1ncn2[C@@H]1O[C@H](CNS(=O)(=O)c2cc3ccccc3s2)[C@@H](O)[C@H]1O`, under setting [2], the AC50 is 6.51 µM [falling, partial curve, poor fit].

Consider `O=C(Cc1ccc(Cl)cc1)NCC(=O)N1CCCC1`, for which, under setting [1], the AC50 was 5.17 µM [falling, full curve, poor fit]. Same read-out and setting: for `CC(C)OC(=O)c1nnc(-c2ccccc2)nc1OC(C)C` the value was 25.9 µM [falling, single point]. Regarding `Cc1ccc(S(=O)(=O)N(CC(=O)NCCC2=CCCCC2)Cc2ccccc2F)cc1`, the AC50 under setting [2] was 14.1 µM [rising, partial curve, poor fit].
